Measured values as given in the supplement of paper PMC7824004.
Some of the results follow. The data scatter; read single values as rough.

Each compound was assayed on Candida albicans SN425 (assay: biofilm OD600 B-score; higher = more biofilm (less inhibition)). Conditions: 10 µM; assay detail: High-throughput adherence inhibition optical density biofilm assay with C. albicans SN425 in RPMI-1640/MOPS pH 7.0, 384-well plates. ….
Procedure: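 High-throughput adherence inhibition optical density biofilm assay with C. albicans SN425 in RPMI-1640/MOPS pH 7.0, 384-well plates. Compound (10 µM) was present only during the 90 min adherence step, then washed out, and the biofilm grew 24 h without compound. Biofilm was read as OD600 after removing the media. Scores are the difference from the mean in standard deviations and the plate B-score.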

| SMILES | biofilm OD600 B-score |
| --- | --- |
| NC(=O)c1ccc(NC(=O)C2CCN(C(=O)Cc3ccccc3)CC2)cc1 | 1.44 |
| CCc1cccc(NC(=O)NC2CCCCC2)c1 | 1.52 |
| CCC(CC)C(=O)Nc1ccc(C(C)=O)cc1 | 1.29 |
| COc1ccccc1CC(=O)NCc1ccccc1Cl | -1.53 |
| CC1CN(CC(O)COc2ccc(Cl)cc2Cl)CC(C)O1 (stereo not given) | 0.725 |
| Cc1cc(C)n(C(=O)c2c(-c3ccccc3)noc2C)n1 | 2.77 |
| CC1CCC(NCC(C)(C)CN(C)C)C1 (stereo not given) | -0.0153 |
| CS(=O)(=O)Nc1ccccc1C(=O)NCc1ccccc1 | 0.689 |
| CCc1ccc(CN(C)CCN(C)C)cc1 | 1.16 |
| CCOc1ccccc1N1CCN(C(=O)CC)CC1 | 0.611 |
| COc1cc(Cl)c(S(=O)(=O)N2CCCCC2)cc1Cl | 1.36 |
| CN(C)c1nc(Nc2ccc(F)cc2)nc(-n2cccn2)n1 | 0.987 |
| COc1ccc(OCCN(C)Cc2ccccc2)cc1 | 2.66 |
| COc1cc(NC(C)=O)c(OC)cc1NC(C)=O | 1.69 |
| Nc1nc(-c2ccccc2)c(I)c(=O)[nH]1 | 4.86 |
| Cc1ccc(NC(=O)Nc2ccc3snnc3c2)cc1 | 0.832 |
| CCCS(=O)(=O)N1CCN(c2ccccn2)CC1 | 1.93 |
| CCCN(CCO)Cc1ccc(F)c(Br)c1 | -1.65 |
| NC(=O)c1ccccc1NC(=O)c1ccc2c(c1)OCO2 | 0.536 |
| C=CCNS(=O)(=O)c1ccc(NC(C)=O)cc1 | 0.724 |

Structural class: those above containing a halogen (6)

| SMILES | biofilm OD600 B-score |
| --- | --- |
| COc1ccccc1CC(=O)NCc1ccccc1Cl | -1.53 |
| CC1CN(CC(O)COc2ccc(Cl)cc2Cl)CC(C)O1 (stereo not given) | 0.725 |
| COc1cc(Cl)c(S(=O)(=O)N2CCCCC2)cc1Cl | 1.36 |
| CN(C)c1nc(Nc2ccc(F)cc2)nc(-n2cccn2)n1 | 0.987 |
| Nc1nc(-c2ccccc2)c(I)c(=O)[nH]1 | 4.86 |
| CCCN(CCO)Cc1ccc(F)c(Br)c1 | -1.65 |

The list continues.

| SMILES | biofilm OD600 B-score |
| --- | --- |
| Cc1cc(C)n(-c2cc(NCCO)ncn2)n1 | 0.862 |
| CN1CCCN(Cc2cccc(Cl)c2)CC1 | -0.778 |
| O=C(Cc1cccs1)NC1C2CC3CC(C2)CC1C3 (stereo not given) | -4.98 |
| COc1ccc(NC(=O)CNC(=O)C2CCCCC2)cc1 | 3.39 |
| Cc1nc(NC(=O)c2ccc3c(c2)OCO3)sc1C | 1.12 |
| O=C(Nc1ccccc1C(=O)N1CCCC1)c1ccc(CN2CCOCC2)cc1 | -0.919 |
| CCCOc1cccc(C(=O)Nc2ccc(OC)cc2OC)c1 | -0.234 |
| CN1CCN(C(=O)CCCOc2ccccc2)CC1 | 0.0507 |
| CCCCOc1ccc(CSCCN)cc1 | -1.19 |
| NC(=O)COc1ccc(NS(=O)(=O)Cc2ccccc2)cc1 | -8.93 |
| Cc1onc(-c2ccccc2Cl)c1C(=O)NN | -2.61 |
| O=C(Nc1ccc(OCC(=O)N2CCOCC2)cc1)c1cccs1 | 0.672 |
| CS(=O)(=O)Nc1ccccc1C(=O)N1CCCC1 | -0.982 |
| CC(=O)Nc1cccc(NC(=O)c2ccc(F)cc2)c1 | 1.21 |
| c1ccc(Nc2nc(-c3ccccn3)cs2)nc1 | 7.62 |
| CC(=O)Nc1c(Cl)cnn(-c2ccccc2)c1=O | 0.731 |
| CC1CCC(N2CCN(c3ncccn3)CC2)C1 (stereo not given) | 1.1 |
| Cc1ccc(-c2csc(Nc3ccccn3)n2)cc1C | 2.29 |
| COc1cccc(N(CC(=O)N2CCOCC2)S(C)(=O)=O)c1 | -3.94 |
| NC(=O)C1CCN(C2CC(=O)N(c3ccccc3Cl)C2=O)CC1 (stereo not given) | -0.139 |
